Laboratory results taken from paper PMC10827748.
No constants are given. Whether binding was seen depends on the method and setting. For some assays here: Binding can be weak; no strength is given.

The chains behind the UniProt entries cited, without tags or fusion partners. Where a name states a change or a piece, a line headed by the entry shows the natural chain unless it says otherwise.
UniProt O88738: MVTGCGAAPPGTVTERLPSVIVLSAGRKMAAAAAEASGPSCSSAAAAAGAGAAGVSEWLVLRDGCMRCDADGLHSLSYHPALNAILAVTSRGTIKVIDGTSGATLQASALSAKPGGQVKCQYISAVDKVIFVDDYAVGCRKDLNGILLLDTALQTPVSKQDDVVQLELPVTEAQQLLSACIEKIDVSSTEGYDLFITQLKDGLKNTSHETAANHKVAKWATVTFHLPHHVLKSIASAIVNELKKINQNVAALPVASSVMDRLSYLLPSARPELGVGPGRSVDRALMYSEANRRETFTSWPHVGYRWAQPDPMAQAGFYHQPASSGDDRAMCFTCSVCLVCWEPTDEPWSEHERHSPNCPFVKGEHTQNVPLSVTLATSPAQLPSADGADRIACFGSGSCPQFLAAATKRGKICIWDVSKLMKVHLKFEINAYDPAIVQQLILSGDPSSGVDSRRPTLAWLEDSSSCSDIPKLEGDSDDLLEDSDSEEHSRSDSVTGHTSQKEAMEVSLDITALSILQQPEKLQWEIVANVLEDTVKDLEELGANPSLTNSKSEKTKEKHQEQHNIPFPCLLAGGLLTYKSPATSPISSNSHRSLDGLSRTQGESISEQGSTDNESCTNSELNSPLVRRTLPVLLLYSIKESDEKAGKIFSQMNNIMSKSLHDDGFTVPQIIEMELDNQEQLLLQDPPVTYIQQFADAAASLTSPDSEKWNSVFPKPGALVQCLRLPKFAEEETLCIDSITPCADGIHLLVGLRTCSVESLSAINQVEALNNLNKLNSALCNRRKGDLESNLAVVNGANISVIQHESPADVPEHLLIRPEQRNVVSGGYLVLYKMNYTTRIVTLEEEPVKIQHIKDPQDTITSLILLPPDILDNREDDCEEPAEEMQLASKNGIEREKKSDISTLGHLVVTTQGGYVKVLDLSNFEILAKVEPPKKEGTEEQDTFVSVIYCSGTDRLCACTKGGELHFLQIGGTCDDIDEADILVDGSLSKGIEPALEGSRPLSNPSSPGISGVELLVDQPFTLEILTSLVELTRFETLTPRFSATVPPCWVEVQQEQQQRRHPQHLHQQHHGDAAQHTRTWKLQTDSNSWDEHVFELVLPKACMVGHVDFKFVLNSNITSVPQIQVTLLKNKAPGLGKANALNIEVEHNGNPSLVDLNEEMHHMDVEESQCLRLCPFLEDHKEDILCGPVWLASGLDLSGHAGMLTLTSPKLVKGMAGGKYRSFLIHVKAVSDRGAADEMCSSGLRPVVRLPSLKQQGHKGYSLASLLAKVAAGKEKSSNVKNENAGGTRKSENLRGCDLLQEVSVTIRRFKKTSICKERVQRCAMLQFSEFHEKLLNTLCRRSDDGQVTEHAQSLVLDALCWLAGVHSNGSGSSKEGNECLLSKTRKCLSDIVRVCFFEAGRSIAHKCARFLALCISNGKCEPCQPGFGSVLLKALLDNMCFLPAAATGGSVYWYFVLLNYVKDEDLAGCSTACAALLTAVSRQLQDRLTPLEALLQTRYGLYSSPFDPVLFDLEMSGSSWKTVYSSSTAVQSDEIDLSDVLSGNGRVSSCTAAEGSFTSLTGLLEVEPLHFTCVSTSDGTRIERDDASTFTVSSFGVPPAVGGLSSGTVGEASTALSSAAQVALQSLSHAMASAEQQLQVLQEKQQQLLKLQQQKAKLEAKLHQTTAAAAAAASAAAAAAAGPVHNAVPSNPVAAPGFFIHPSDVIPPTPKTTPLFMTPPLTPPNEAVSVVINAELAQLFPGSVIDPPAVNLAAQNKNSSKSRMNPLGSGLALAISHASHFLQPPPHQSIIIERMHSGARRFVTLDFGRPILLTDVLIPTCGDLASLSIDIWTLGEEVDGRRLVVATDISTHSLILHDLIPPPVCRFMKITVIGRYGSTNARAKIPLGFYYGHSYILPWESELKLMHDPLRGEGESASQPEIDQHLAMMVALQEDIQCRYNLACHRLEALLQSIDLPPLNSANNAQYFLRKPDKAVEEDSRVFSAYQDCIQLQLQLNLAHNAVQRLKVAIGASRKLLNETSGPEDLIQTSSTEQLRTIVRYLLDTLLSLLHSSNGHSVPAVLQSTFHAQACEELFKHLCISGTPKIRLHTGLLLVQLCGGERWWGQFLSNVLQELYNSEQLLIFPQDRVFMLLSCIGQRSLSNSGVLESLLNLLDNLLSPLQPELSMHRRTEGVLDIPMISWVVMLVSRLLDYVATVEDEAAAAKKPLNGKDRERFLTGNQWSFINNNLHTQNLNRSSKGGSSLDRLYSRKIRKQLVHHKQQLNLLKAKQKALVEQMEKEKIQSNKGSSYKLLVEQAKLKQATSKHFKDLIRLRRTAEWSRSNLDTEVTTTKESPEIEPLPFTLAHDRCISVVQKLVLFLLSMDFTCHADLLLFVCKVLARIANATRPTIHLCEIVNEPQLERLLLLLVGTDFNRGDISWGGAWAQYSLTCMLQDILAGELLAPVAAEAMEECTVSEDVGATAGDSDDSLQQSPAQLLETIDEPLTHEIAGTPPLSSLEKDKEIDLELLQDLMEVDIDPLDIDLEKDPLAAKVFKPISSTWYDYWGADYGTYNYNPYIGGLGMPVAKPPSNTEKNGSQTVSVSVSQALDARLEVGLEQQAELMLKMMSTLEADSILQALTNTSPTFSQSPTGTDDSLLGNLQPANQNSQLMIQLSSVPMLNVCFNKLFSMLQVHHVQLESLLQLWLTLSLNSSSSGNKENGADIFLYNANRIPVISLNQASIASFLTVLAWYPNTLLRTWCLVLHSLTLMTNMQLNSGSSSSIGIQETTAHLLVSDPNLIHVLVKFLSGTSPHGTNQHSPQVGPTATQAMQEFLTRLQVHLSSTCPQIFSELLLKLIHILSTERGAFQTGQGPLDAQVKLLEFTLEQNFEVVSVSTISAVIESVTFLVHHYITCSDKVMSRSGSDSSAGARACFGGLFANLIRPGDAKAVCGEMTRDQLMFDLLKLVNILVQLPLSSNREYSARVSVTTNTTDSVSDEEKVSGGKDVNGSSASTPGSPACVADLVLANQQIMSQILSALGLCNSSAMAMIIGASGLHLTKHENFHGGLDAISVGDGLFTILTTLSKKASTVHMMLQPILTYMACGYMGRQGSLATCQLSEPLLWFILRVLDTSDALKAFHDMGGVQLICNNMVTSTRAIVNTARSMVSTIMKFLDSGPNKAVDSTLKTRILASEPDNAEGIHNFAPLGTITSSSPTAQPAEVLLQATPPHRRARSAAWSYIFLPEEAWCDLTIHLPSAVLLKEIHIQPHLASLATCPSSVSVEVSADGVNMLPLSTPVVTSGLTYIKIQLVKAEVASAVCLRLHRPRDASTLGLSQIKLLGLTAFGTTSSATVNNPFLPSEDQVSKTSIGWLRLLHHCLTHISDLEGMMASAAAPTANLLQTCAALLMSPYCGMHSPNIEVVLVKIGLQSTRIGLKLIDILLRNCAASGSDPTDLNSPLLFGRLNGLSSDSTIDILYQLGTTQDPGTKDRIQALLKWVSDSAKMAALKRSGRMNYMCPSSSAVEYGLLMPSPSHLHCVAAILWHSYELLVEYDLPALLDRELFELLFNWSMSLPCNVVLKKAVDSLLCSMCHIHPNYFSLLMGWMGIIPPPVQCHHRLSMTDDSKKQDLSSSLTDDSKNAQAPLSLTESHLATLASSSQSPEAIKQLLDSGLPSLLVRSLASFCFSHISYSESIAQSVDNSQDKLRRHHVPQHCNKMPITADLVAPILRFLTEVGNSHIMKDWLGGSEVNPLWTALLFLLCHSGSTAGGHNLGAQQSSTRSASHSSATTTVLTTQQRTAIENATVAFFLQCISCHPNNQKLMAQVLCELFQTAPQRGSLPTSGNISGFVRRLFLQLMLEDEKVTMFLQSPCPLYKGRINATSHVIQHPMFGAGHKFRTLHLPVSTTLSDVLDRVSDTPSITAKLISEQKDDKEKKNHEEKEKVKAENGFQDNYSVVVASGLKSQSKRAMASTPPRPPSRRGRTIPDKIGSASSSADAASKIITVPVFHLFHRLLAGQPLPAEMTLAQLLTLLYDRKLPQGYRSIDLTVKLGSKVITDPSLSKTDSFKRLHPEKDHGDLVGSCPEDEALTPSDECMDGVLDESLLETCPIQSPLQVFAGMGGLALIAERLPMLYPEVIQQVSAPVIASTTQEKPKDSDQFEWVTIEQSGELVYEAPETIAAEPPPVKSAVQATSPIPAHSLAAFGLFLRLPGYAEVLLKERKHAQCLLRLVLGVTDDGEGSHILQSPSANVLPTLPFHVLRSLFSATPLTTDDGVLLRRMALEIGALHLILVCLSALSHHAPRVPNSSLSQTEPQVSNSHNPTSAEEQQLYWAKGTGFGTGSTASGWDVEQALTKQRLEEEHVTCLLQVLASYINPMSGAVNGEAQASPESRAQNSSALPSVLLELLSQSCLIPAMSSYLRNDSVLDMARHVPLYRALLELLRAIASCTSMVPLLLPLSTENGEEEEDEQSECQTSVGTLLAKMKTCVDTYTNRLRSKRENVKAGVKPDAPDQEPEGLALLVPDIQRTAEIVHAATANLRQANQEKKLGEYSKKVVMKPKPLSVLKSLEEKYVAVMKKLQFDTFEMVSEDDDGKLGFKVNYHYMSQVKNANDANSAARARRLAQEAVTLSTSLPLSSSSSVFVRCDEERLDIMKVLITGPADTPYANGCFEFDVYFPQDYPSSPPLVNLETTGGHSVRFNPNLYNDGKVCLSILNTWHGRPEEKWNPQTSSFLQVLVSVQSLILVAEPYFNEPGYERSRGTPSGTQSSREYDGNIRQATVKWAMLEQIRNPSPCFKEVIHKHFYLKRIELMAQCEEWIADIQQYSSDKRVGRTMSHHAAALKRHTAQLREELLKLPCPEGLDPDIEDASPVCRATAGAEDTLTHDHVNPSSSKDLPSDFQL

Tests used:
[1] = target: His-tagged N1 region of BIRC6 (aa 27-358) (mouse) (UniProt O88738); assay: pull-down; His-tagged N1 or N2 region of BIRC6 with the LIR1 peptide in vitro; both purified
[2] = target: His-tagged N2 region of BIRC6 (aa 358-543) (mouse) (UniProt O88738); assay: as above

B1: BIRC6-LIR1 peptide (peptide)
peptide: NPQTSSFLQVLV
In the case of B1, the binding [1] is reported as “binds” and the binding [2] is reported as “no binding”.
